The nature of the assay: qHTS Assay for Lipid Storage Modulators in Drosophila S3 Cells.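 For cell number change: cells counted by Cell Tracker Red CMTPX staining in the red channel.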 The note with it: BODIPY lipid droplet fluorescence, 18-24 h; for cell number change: measured here: cell count max response, cells fed with added oleic acid. A digest of the protocol: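 Laser-scanning cytometry quantifies lipid droplet accumulation (500–530 nm total intensity; droplet/cell object ratio) in oleic acid-fed (400 uM added) Drosophila S3 cells treated with a concentration series. 20 uM Triacsin C defined 100% inhibition.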
In general terms: Quantitative high-throughput screening tests each substance at several concentrations.

The mark [1] stands for this setting: measured here: lipid fluorescence (Fed channel) AC50, cells fed with added oleic acid.
Where [2] appears, read: measured here: cell number channel AC50, cells fed with added oleic acid.

The structures appear in SMILES notation. The list shows a part of the results. Further columns of the screen follow, without active or inactive calls. Compounds called inactive in the main read-out are mostly missing here. Words in brackets tell the shape of the fitted curve; partial curves, single points and poor fits give uncertain potencies.

Broadly, the AC50 is the concentration giving half of the maximal activity seen. With `C/C(=N\Nc1nc2ccccc2c(=O)n1O)c1ccco1`, the cell number change was -6.38%. In addition, the AC50 under setting [1] was 5.8 µM [rising, single point].
Regarding `CC(C)(C)NC(=O)CSc1nnc(-c2ccncc2)o1`, the cell number change turned out to be 122%. Also, under setting [2], the AC50 is 29.1 µM [rising, single point]. Further, the AC50 under setting [1] was 4.11 µM [rising, full curve].
For `C=CCN1C(=O)/C(=C\c2ccc(C)cc2)N=C1SCC(=O)NCCC`, the cell number change was -9.96%. Moreover, under setting [2], the AC50 was 0.411 µM [rising, full curve]. In addition, the AC50 under setting [1] is 0.92 µM [rising, full curve].
As for `COc1cc(/C=C/C(=O)O)ccc1OS(=O)(=O)c1c(C)c(C)cc(C)c1C`, the cell number change is -14.2%. Besides, the AC50 under setting [1] was 2.06 µM [rising, partial curve].
Take `Cc1cccc(-n2c(C)cc(/C=C3\C(=N)N4N=C(CC(C)C)SC4=NC3=O)c2C)c1`: under setting [2], the AC50 was 3.26 µM [rising, partial curve, poor fit].
On to `Cc1nn(C)c2ncc(C(N)=O)c(Oc3ccc(Cl)cc3)c12`, for which the cell number change worked out at 21.4%. Also, the AC50 under setting [2] is 0.103 µM [rising, full curve, poor fit].
In the case of `Cc1ccc(N(CC(=O)NCCc2ccccc2)C(=O)c2csnn2)cc1`, the cell number change stood at 26.7%. The AC50 under setting [2] was 0.0461 µM [rising, full curve, poor fit]. Also, the AC50 under setting [1] is 1.3 µM [rising, partial curve].
`COc1cc(CCC(=O)N2CCN(c3ncccn3)CC2)cc(OC)c1OC`: the cell number change is -21.7%. The AC50 under setting [2] is 0.0517 µM [falling, full curve, poor fit].
In the case of `CCN(CC)c1ccc(N=Cc2ccccc2[N+](=O)[O-])cc1`, the cell number change is -38.7%. Besides, the AC50 under setting [2] was 13 µM [falling, partial curve, poor fit]. Further, the AC50 under setting [1] was 14.6 µM [falling, single point].
In the case of `CC1(C)Cn2c(nnc2-c2ccccc2)S1`, the cell number change came to 13.8%. Further, under setting [1], the AC50 was 29.1 µM [falling, single point].
Take `O=C(O)CCN1C(=O)C(=C2CCCCCC2)SC1=S`: the cell number change amounted to 7.1%. Under setting [2], the concentration at half-maximal activity (AC50) is 6.51 µM [rising, single point].
Turning to `CCNc1nc(N)nc(Oc2ccc(OCCOc3ccc(Cl)cc3Cl)nn2)n1`, the cell number change is 8.31%. Also, the AC50 under setting [1] was 2.91 µM [rising, single point].
Consider `O=C(/C=C/c1ccc(O)c(O)c1)NC(=O)c1ccccc1O`, for which the cell number change was -17.2%.
For the molecule `O=C(CSc1nnc(-c2ccncc2)n1Cc1ccccc1)Nc1nccs1`, the cell number change is -6.42%. For the same molecule, the AC50 under setting [1] is 0.92 µM [falling, partial curve, poor fit].
As for `O=C(NNC(=O)c1ccccc1Cl)c1ccccc1Cl`, the cell number change was -55.5%. Besides, the AC50 under setting [2] was 11.6 µM [falling, single point]. The AC50 under setting [1] is 23.1 µM [falling, single point].
On to `O=C(Nc1ccccc1)N(Cc1ccccc1)Cc1ccccc1`, for which the cell number change was -28.8%. The AC50 under setting [1] is 2.31 µM [falling, partial curve].
Regarding `O=C(Nc1cccc(Cl)c1N1CCOCC1)c1cccnc1Cl`, the cell number change was -17.2%. Also, the AC50 under setting [1] is 29.1 µM [falling, single point].
As to `Nc1nonc1-n1nnc(C(=O)N/N=C/c2cccnc2)c1CSc1ccccc1`, the cell number change is -7.46%. Moreover, under setting [1], the AC50 is 1.64 µM [rising, partial curve].
Turning to `C#CCOCCOCCOCCNc1nc(N2CCN(C(=O)CCCCCCCCCCNC(=O)[C@H]([C@@H](C)CC)n3cc(CCCCN=C(N)N)nn3)CC2)nc(N2CCN(C(=O)CCCCCCCCCCNC(=O)[C@H]([C@@H](C)CC)n3cc(CCCCN=C(N)N)nn3)CC2)n1`, the cell number change was -87%. In addition, the AC50 under setting [2] was 5.8 µM [falling, partial curve]. Further, the half-maximal activity concentration (AC50) under setting [1] was 4.11 µM [falling, single point].
For `CC(=O)N1CCN(c2nc(CC(C)C)c3c(c2C#N)CCC3)CC1`, the cell number change worked out at 4.13%. Further, under setting [1], the AC50 is 6.51 µM [rising, single point].
For `O=C(C1=C[C@@H]2[C@H]3C(=O)N(c4ccccc4Cl)C(=O)[C@H]3[C@@H](C(=O)c3ccc(Cl)cc3)N2C=C1)c1ccccc1`, under setting [1], the AC50 was 0.461 µM [rising, partial curve, poor fit].
Take `CCC(NC(=O)c1cc(COc2ccc(F)cc2Cl)on1)c1ccncc1` (stereo not given): the AC50 under setting [1] is 6.51 µM [rising, single point].
In the case of `COc1ccc(COC(=O)NC(C(=O)O)c2ccccc2)cc1` (stereo not given), the cell number change is -2.97%. Besides, the AC50 under setting [1] is 0.00651 µM [falling, full curve, poor fit].
Turning to `Cc1cc(NC(=O)c2ccc(F)cc2)n(-c2ccccn2)n1`, the cell number change is 2.93%. Further, the half-maximal activity concentration (AC50) under setting [2] was 3.26 µM [falling, partial curve]. Also, the concentration at half-maximal activity (AC50) under setting [1] is 2.31 µM [falling, partial curve].
With `N#Cc1c2n(c3c(N)ncnc13)CCCCC2`, the cell number change is 12%.
For the molecule `COc1cc(C#N)ccc1OCC(=O)N1CCc2ccccc2C1`, the cell number change was -23.8%. Further, the AC50 under setting [1] is 2.06 µM [falling, single point].
For `CN1C(=O)N(C)c2ccc(C=O)c3cccc1c23`, the cell number change was 9.72%. Besides, the AC50 under setting [1] is 6.51 µM [rising, partial curve, poor fit].
For `Cc1ccc(C(=O)NC(=S)NNC(=O)COc2ccccc2C)cc1`, the cell number change is -4.75%.
Consider `Cc1cccc(NC2=C(NCCO)C(=O)c3ccccc3C2=O)c1`, for which the cell number change is -76.8%. In addition, under setting [2], the AC50 is 23.1 µM [falling, partial curve, poor fit]. In addition, under setting [1], the AC50 is 13 µM [falling, partial curve].
With `CCOc1ccc(S(=O)(=O)Nc2ccncc2)c(C)c1C`, the cell number change was -29.1%. Besides, the AC50 under setting [1] was 29.1 µM [falling, single point].
As to `N#Cc1ccc2ccn(CC(=O)NC3CCCCC3)c2c1`, the cell number change is -10.4%. The AC50 under setting [1] was 0.103 µM [falling, full curve, poor fit].
As for `COCCN(C(=O)C1CCN(C(=O)c2ccccc2C)CC1)c1c(N)n(CC(C)C)c(=O)[nH]c1=O`, the cell number change is -14.5%.
Consider `COc1ccc(CN2CCCCC2C)cc1OC` (stereo not given), for which the cell number change was -128%. Moreover, the AC50 under setting [2] is 23.1 µM [falling, partial curve]. Further, the AC50 under setting [1] was 23.1 µM [falling, partial curve].
On to `Cc1occc1-c1nnc(SCC(=O)Nc2nc3ccccc3s2)o1`, for which the cell number change is 41.1%. In addition, the AC50 under setting [2] was 29.1 µM [rising, single point]. Besides, under setting [1], the AC50 was 0.651 µM [rising, single point].
As to `c1ccc(Cc2c[nH]c3ccccc23)cc1`, the cell number change was -23%.
As for `CN1CCOc2cc(S(=O)(=O)Nc3ccc(F)cc3)ccc21`, the cell number change is -35%. In addition, the AC50 under setting [2] is 0.206 µM [falling, full curve, poor fit]. In addition, the AC50 under setting [1] is 0.092 µM [falling, full curve].
Consider `CCOc1ccc(C(=O)NC(=S)Nc2cc(C)ccn2)cc1[N+](=O)[O-]`, for which the cell number change worked out at 5.81%.
As to `C=CCN1C(=O)c2ccc(C(=O)N(CC)CC(=O)Nc3cc(Cl)ccc3C)cc2C1=O`, the cell number change was -56.2%. The AC50 under setting [2] was 7.31 µM [falling, single point]. Also, the AC50 under setting [1] is 0.58 µM [falling, single point].
Take `COc1ccc(OC)c(-c2nnc(SCC(=O)NC3CCCCC3)o2)c1`: the cell number change stood at 110%. Also, the AC50 under setting [2] was 5.17 µM [rising, full curve]. For the same molecule, under setting [1], the AC50 is 6.51 µM [rising, partial curve].
For `COc1cccc(NC(=O)CN(C)C(=O)Cc2ccc(Cl)cc2Cl)c1`, the cell number change was 29.5%.
With `CCN(C(=N)N=C(N)N)c1ccccc1`, the cell number change is -37.4%. Further, the AC50 under setting [1] was 29.1 µM [falling, single point].
Consider `c1csc(CCNc2ncnc3sc4c(c23)CCC4)c1`, for which the cell number change is -9.94%.
Regarding `NC(=O)c1sc2nc3c(c(-c4ccc(Cl)cc4)c2c1N)CCCC3`, the cell number change amounted to 17.6%. The AC50 under setting [2] was 0.517 µM [rising, full curve, poor fit]. Further, under setting [1], the AC50 is 9.2 µM [rising, partial curve].
On to `COc1cccc(OC)c1NC(=O)C1CCCN1C(=O)Nc1cccc(Cl)c1` (stereo not given), for which the cell number change was -10.5%. Also, under setting [1], the AC50 was 29.1 µM [falling, single point].
As for `O=C(Oc1cccnc1)c1ccc(Cl)cc1`, the cell number change is -1.47%.
As for `Cc1cccc(C(=O)N[C@H](C(=O)OCc2cc(=O)n3c(n2)sc2ccccc23)C(C)C)c1`, the cell number change came out at 0.725%. Also, under setting [1], the AC50 was 0.103 µM [rising, full curve, poor fit].
In the case of `CCCc1cc(=O)n2[nH]c(-c3ccco3)nc2n1`, the cell number change was -30.1%. Besides, under setting [2], the AC50 was 2.59 µM [falling, full curve]. Further, the AC50 under setting [1] was 2.06 µM [falling, full curve, poor fit].
For `CC(C)(C)c1nc2ccc([N+](=O)[O-])cc2[nH]1`, the cell number change is -0.331%.
Turning to `O=c1oc2ccccc2cc1-c1nc2c(s1)CCc1ccccc1-2`, the cell number change was -1.59%. Further, the AC50 under setting [1] was 0.517 µM [falling, single point].
Take `O=C(Nc1csnn1)c1csnn1`: the cell number change was -37%. In addition, the AC50 under setting [2] was 29.1 µM [falling, single point]. Moreover, under setting [1], the AC50 was 0.651 µM [rising, single point].
In the case of `O=C(Cc1c(F)cccc1Cl)c1ccc(O)cc1O`, the cell number change was -53.2%. Moreover, the AC50 under setting [2] is 9.2 µM [falling, partial curve]. In addition, the AC50 under setting [1] is 7.31 µM [falling, partial curve].
`CCOc1ccc(N(CC(=O)N2CCCCCC2)S(=O)(=O)c2ccc(C)cc2)cc1`: the cell number change came to 1.45%. Besides, the AC50 under setting [1] is 29.1 µM [falling, single point].
Regarding `C/C(N)=C(/C#N)C(=O)COC(=O)CNS(=O)(=O)c1c(F)cccc1F`, the cell number change is -31.5%.
On to `O=S(=O)(Cc1ccc(Cl)cc1)c1ncc(CO)n1Cc1ccccc1`, for which the cell number change is -5.81%. The AC50 under setting [1] is 6.51 µM [falling, single point].
Consider `CC1CCCC(C)N1C(=O)COC(=O)c1cc(Br)ccc1Cl` (stereo not given), for which the cell number change was -31.7%. Besides, the AC50 under setting [2] is 29.1 µM [falling, single point]. Besides, the AC50 under setting [1] was 20.6 µM [falling, single point].
Turning to `Cc1ccc(-c2ccc(C(=O)NCc3ccccc3)o2)c2ccccc12`, the cell number change was -2.61%. Further, the AC50 under setting [1] was 2.59 µM [rising, full curve].
For `COC(=O)c1ccc(C2=NOC(C)(c3sc(-c4ccc(Cl)cc4)nc3C)C2)cc1` (stereo not given), the cell number change was 29%. Moreover, the AC50 under setting [1] was 9.2 µM [rising, partial curve].
Consider `O=c1c2cc(NC(=S)N3CCCCCC3)ccc2nc2n1CCCCC2`, for which the cell number change is -23.2%. The AC50 under setting [1] was 7.31 µM [falling, partial curve].

(Values after PubChem BioAssay AID2685 (National Center for Advancing Translational Sciences (NCATS), 2010).)
